Further values from the same series stand in other lists.
Test: Assay (I): Determination of Solubility (96-well plate, pH 3.0-11.0, organic solvent 0-70% w/w, UV absorption at 280 nm)
Assay type: physicochemical
Details: Method 1 (evaporation)
Method: Assay (I): Determination of Solubility
96-Well Plate Preparation
96-well plates containing target peptide in a solid form were prepared in one of two ways:
Method 1 (evaporation): Addition of 100 μl stock solution of said peptide at a concentration of 4-6 mg/ml to each well of a 96-well half area plate (150 μl well size). Subsequently the solvent was evaporated by applying a vacuum until the solvent was completely removed.
Method 2 (precipitation): Addition of a certain volume of a stock solution of said peptide containing to each well of a 96-well half area plate followed by the addition of a certain volume of concentrated phosphoric acid to obtain a pH of 4.6 followed by addition of a certain volume of ethanol resulting in a final ethanol concentration of 20% v/v. Subsequently the plate was stored at 4° C. for 1 h and then centrifuged at 4,000 rpm for 20 min. Finally the supernatant was removed. The concentration of the stock solution was chosen in a way that the final amount of peptide after supernatant removal was >0.4 mg per well.
In both cases the stock solution was prepared by adding de-ionized water to a certain amount of powder of said peptide followed by a stepwise addition of small amounts of a concentrated sodium hydroxide solution until said peptide was completely in solution.
To determine solubility of a target peptide at different pH and organic solvent concentrations, two different buffer systems were used in independent experiments to cover the whole range from pH 3.0 to pH 11.0. Buffer system 1 covers pH 3.0-7.5 and buffer system 2 covers pH 7.5-11.0. For each buffer system 96 different solvent compositions were premixed in the following way: • 1. A low pH buffer (adjusted to either pH 3.0 or pH 7.5) and a high pH buffer (adjusted to either pH 7.5 or pH 11.0) were mixed at 8 different ratios to obtain values between pH 3.0 and pH 7.5 or pH 7.5 and pH 11.0, respectively. The total volume after mixing was 300 μl. • 2. 12 different amounts of organic solvent were then added to these buffers to obtain organic solvent (e.g. ethanol) concentrations between 0 and 70% w/w. • 3. Water was then added to obtain a total weight of 1.0 g of solvent in each well.
After preparing the 96 different solvent systems, 100 μl of each system was transferred to the 96-well plate containing the solid form of the target peptide (prepared as described in the section “96-well plate preparation”). The plate was then stored at a given temperature (between 5° C. and 70° C.) for a given time on a rotating shaker set to 400 rpm. At regular time intervals the plate was centrifuged (4,000 rpm for 10 min) and a 10 μl sample was taken from each well. The samples were then analysed by UV absorption at 280 nm for peptide quantification. Peptide concentration results are given as UV absorption at 280 nm of the sample subtracted UV absorption at 280 nm of a well comprising 10 μl water.
The buffers used were as follows: • Buffer system 1 (for the pH range from pH 3.0-7.5)
• Buffer system 2 (for the pH ranae from pH 7.5-11.0)
Solubility of liraglutide was determined using Assay (I) described herein. Liraglutide was prepared using Method 1 (evaporation) or Method 2 (precipitation) as described in subsection “96-well plate preparation”.

CCCCCCCCCCCCCCCC(=O)N[C@@H](CCC(=O)NCCCC[C@H](NC(=O)[C@H](C)NC(=O)[C@H](C)NC(=O)[C@H](CCC(N)=O)NC(=O)CNC(=O)[C@H](CCC(=O)O)NC(=O)[C@H](CC(C)C)NC(=O)[C@H](Cc1ccc(O)cc1)NC(=O)[C@H](CO)NC(=O)[C@H](CO)NC(=O)[C@@H](NC(=O)[C@H](CC(=O)O)NC(=O)[C@H](CO)NC(=O)[C@@H](NC(=O)[C@H](Cc1ccccc1)NC(=O)[C@@H](NC(=O)CNC(=O)[C@H](CCC(=O)O)NC(=O)[C@H](C)NC(=O)[C@@H](N)Cc1cnc[nH]1)[C@@H](C)O)[C@@H](C)O)C(C)C)C(=O)N[C@@H](CCC(=O)O)C(=O)N[C@@H](Cc1ccccc1)C(=O)N[C@H](C(=O)N[C@@H](C)C(=O)N[C@@H](Cc1c[nH]c2ccccc12)C(=O)N[C@@H](CC(C)C)C(=O)N[C@H](C(=O)N[C@@H](CCCNC(=N)N)C(=O)NCC(=O)N[C@@H](CCCNC(=N)N)C(=O)NCC(=O)O)C(C)C)[C@@H](C)CC)C(=O)O [liraglutide, Arg34,Lys26-(N-epsilon-(gamma-L-glutamyl(N-alfa-hexadecanoyl)))-GLP-1(7-37)]
0.6 mg/mL: Peptide concentration after 24 h (DMF 31.8% w/w, pH 3.1, RT) | Peptide concentration after 5 min (DMF 31.8% w/w, pH 6.7, RT)
2.9 mg/mL: Peptide concentration after 5 min (DMF 25.5% w/w, pH 10.5, RT)
1.2 mg/mL: Peptide concentration after 24 h (DMF 19.1% w/w, pH 5.8, RT)
2.4 mg/mL: Peptide concentration after 5 min (DMF 19.1% w/w, pH 10.0, RT)
3.2 mg/mL: Peptide concentration after 5 min (DMF 25.5% w/w, pH 10.0, RT)
2.1 mg/mL: Peptide concentration after 24 h (DMF 19.1% w/w, pH 6.7, RT) | Peptide concentration after 180 min (DMF 25.5% w/w, pH 5.8, RT)
1.1 mg/mL: Peptide concentration after 180 min (DMF 31.8% w/w, pH 5.8, RT)
2.3 mg/mL: Peptide concentration after 5 min (DMF 12.7% w/w, pH 9.5, RT) | Peptide concentration after 5 min (DMF 12.7% w/w, pH 10.0, RT) | Peptide concentration after 180 min (DMF 19.1% w/w, pH 7.2, RT) | Peptide concentration after 5 min (DMF 19.1% w/w, pH 7.5, RT) | Peptide concentration after 5 min (DMF 19.1% w/w, pH 10.5, RT)
0.9 mg/mL: Peptide concentration after 5 min (DMF 19.1% w/w, pH 6.3, RT) | Peptide concentration after 5 min (DMF 25.5% w/w, pH 6.9, RT) | Peptide concentration after 180 min (DMF 31.8% w/w, pH 6.3, RT) | Peptide concentration after 5 min (DMF 31.8% w/w, pH 6.9, RT)
>4.0 mg/mL: Peptide concentration after 180 min (DMF 12.7% w/w, pH 9.5, RT) | Peptide concentration after 180 min (DMF 12.7% w/w, pH 10.0, RT) | Peptide concentration after 180 min (DMF 12.7% w/w, pH 10.5, RT) | Peptide concentration after 180 min (DMF 12.7% w/w, pH 11.0, RT) | Peptide concentration after 24 h (DMF 19.1% w/w, pH 6.3, RT) | Peptide concentration after 24 h (DMF 19.1% w/w, pH 6.9, RT) | Peptide concentration after 24 h (DMF 19.1% w/w, pH 7.2, RT) | Peptide concentration after 180 min (DMF 19.1% w/w, pH 7.5, RT) | Peptide concentration after 180 min (DMF 19.1% w/w, pH 8.0, RT) | Peptide concentration after 180 min (DMF 19.1% w/w, pH 8.5, RT) | Peptide concentration after 180 min (DMF 19.1% w/w, pH 9.0, RT) | Peptide concentration after 180 min (DMF 19.1% w/w, pH 9.5, RT) | Peptide concentration after 180 min (DMF 19.1% w/w, pH 10.0, RT) | Peptide concentration after 180 min (DMF 19.1% w/w, pH 10.5, RT) | Peptide concentration after 180 min (DMF 19.1% w/w, pH 11.0, RT) | Peptide concentration after 24 h (DMF 25.5% w/w, pH 6.3, RT) | Peptide concentration after 24 h (DMF 25.5% w/w, pH 6.9, RT) | Peptide concentration after 24 h (DMF 25.5% w/w, pH 7.2, RT) | Peptide concentration after 180 min (DMF 25.5% w/w, pH 7.5, RT) | Peptide concentration after 180 min (DMF 25.5% w/w, pH 8.0, RT) | Peptide concentration after 180 min (DMF 25.5% w/w, pH 8.5, RT) | Peptide concentration after 180 min (DMF 25.5% w/w, pH 9.0, RT) | Peptide concentration after 180 min (DMF 25.5% w/w, pH 9.5, RT) | Peptide concentration after 180 min (DMF 25.5% w/w, pH 10.0, RT) | Peptide concentration after 180 min (DMF 25.5% w/w, pH 10.5, RT) | Peptide concentration after 180 min (DMF 25.5% w/w, pH 11.0, RT)
0.8 mg/mL: Peptide concentration after 5 min (DMF 19.1% w/w, pH 6.7, RT) | Peptide concentration after 24 h (DMF 31.8% w/w, pH 5.8, RT)
0.7 mg/mL: Peptide concentration after 5 min (DMF 19.1% w/w, pH 7.2, RT) | Peptide concentration after 5 min (DMF 25.5% w/w, pH 6.3, RT) | Peptide concentration after 5 min (DMF 25.5% w/w, pH 6.7, RT)
1.9 mg/mL: Peptide concentration after 5 min (DMF 19.1% w/w, pH 9.0, RT) | Peptide concentration after 5 min (DMF 25.5% w/w, pH 8.5, RT)
1.7 mg/mL: Peptide concentration after 5 min (DMF 12.7% w/w, pH 11.0, RT) | Peptide concentration after 180 min (DMF 25.5% w/w, pH 7.2, RT) | Peptide concentration after 5 min (DMF 25.5% w/w, pH 8.0, RT)
0.3 mg/mL: Peptide concentration after 24 h (DMF 19.1% w/w, pH 4.8, RT) | Peptide concentration after 5 min (DMF 19.1% w/w, pH 5.8, RT) | Peptide concentration after 180 min (DMF 25.5% w/w, pH 3.1, RT) | Peptide concentration after 180 min (DMF 25.5% w/w, pH 4.8, RT) | Peptide concentration after 180 min (DMF 31.8% w/w, pH 4.8, RT) | Peptide concentration after 24 h (DMF 31.8% w/w, pH 4.8, RT) | Peptide concentration after 5 min (DMF 31.8% w/w, pH 5.8, RT)
0.2 mg/mL: Peptide concentration after 5 min (DMF 19.1% w/w, pH 3.1, RT) | Peptide concentration after 5 min (DMF 19.1% w/w, pH 4.8, RT) | Peptide concentration after 5 min (DMF 25.5% w/w, pH 3.1, RT) | Peptide concentration after 5 min (DMF 25.5% w/w, pH 4.8, RT) | Peptide concentration after 24 h (DMF 25.5% w/w, pH 4.8, RT) | Peptide concentration after 5 min (DMF 31.8% w/w, pH 3.1, RT) | Peptide concentration after 180 min (DMF 31.8% w/w, pH 3.1, RT) | Peptide concentration after 5 min (DMF 31.8% w/w, pH 4.8, RT)
1.0 mg/mL: Peptide concentration after 5 min (DMF 19.1% w/w, pH 6.9, RT) | Peptide concentration after 24 h (DMF 25.5% w/w, pH 3.1, RT)
3.1 mg/mL: Peptide concentration after 5 min (DMF 25.5% w/w, pH 9.5, RT)
1.8 mg/mL: Peptide concentration after 5 min (DMF 19.1% w/w, pH 8.5, RT) | Peptide concentration after 180 min (DMF 25.5% w/w, pH 6.7, RT) | Peptide concentration after 180 min (DMF 31.8% w/w, pH 6.9, RT)
1.4 mg/mL: Peptide concentration after 5 min (DMF 19.1% w/w, pH 8.0, RT) | Peptide concentration after 180 min (DMF 31.8% w/w, pH 6.7, RT)
2.6 mg/mL: Peptide concentration after 180 min (DMF 19.1% w/w, pH 5.8, RT) | Peptide concentration after 5 min (DMF 19.1% w/w, pH 9.5, RT) | Peptide concentration after 24 h (DMF 31.8% w/w, pH 6.3, RT)
0.4 mg/mL: Peptide concentration after 180 min (DMF 19.1% w/w, pH 3.1, RT) | Peptide concentration after 5 min (DMF 25.5% w/w, pH 5.8, RT) | Peptide concentration after 5 min (DMF 25.5% w/w, pH 7.2, RT)
2.7 mg/mL: Peptide concentration after 5 min (DMF 12.7% w/w, pH 10.5, RT) | Peptide concentration after 24 h (DMF 25.5% w/w, pH 6.7, RT) | Peptide concentration after 5 min (DMF 25.5% w/w, pH 7.5, RT)
1.5 mg/mL: Peptide concentration after 5 min (DMF 19.1% w/w, pH 11.0, RT) | Peptide concentration after 180 min (DMF 25.5% w/w, pH 6.3, RT)
2.8 mg/mL: Peptide concentration after 180 min (DMF 19.1% w/w, pH 6.9, RT)
0.5 mg/mL: Peptide concentration after 180 min (DMF 19.1% w/w, pH 4.8, RT) | Peptide concentration after 5 min (DMF 31.8% w/w, pH 6.3, RT)
2.0 mg/mL: Peptide concentration after 180 min (DMF 19.1% w/w, pH 6.3, RT) | Peptide concentration after 5 min (DMF 25.5% w/w, pH 11.0, RT) | Peptide concentration after 24 h (DMF 31.8% w/w, pH 6.7, RT)
1.3 mg/mL: Peptide concentration after 24 h (DMF 19.1% w/w, pH 3.1, RT) | Peptide concentration after 180 min (DMF 19.1% w/w, pH 6.7, RT) | Peptide concentration after 24 h (DMF 25.5% w/w, pH 5.8, RT) | Peptide concentration after 5 min (DMF 25.5% w/w, pH 9.0, RT)
2.2 mg/mL: Peptide concentration after 180 min (DMF 25.5% w/w, pH 6.9, RT)
